According to PubChem BioAssay AID248 (DTP/NCI, 2004):
The list shows only some results of the screen, not a fair sample: it gathers tests that were run many times, whatever their T/C, doses with no T/C, and many T/C values between a quarter and a half above the control. Further doses and runs are listed elsewhere. T/C: endpoint of the treated group in % of that of the vehicle group. Some doses have a count of surviving animals in place of a T/C: the source holds a T/C of zero for them, seemingly a mark for toxic or unscored doses. Some survivor counts are full or nearly so, which does not show that the dose was tolerated: survival well below the control is almost never listed, so the zero probably covers shortened survival too. Counts of survivors are from the toxicity check (mostly the fifth day) where no day follows; animals may have died later. Schedule codes are those of the source, taken here to give the interval after Q, in days (D) or hours (H), and the number of doses after X. Some schedule codes hold Z or #, which are not explained here. Some doses were run more than once; the results are listed from low to high. Where survival is the endpoint, this PubChem deposit counts one and a half times the control or more as active, and values a quarter to a half above the control carry no call in these data; other NCI protocols may use other cut-offs.

Tested on: L1210 leukemia ip in BDF1 mice, survival T/C
Assay: NCI In Vivo Anticancer Drug Screen. Data for tumor model L1210 Leukemia (intraperitoneal) in B6D2F1 (BDF1) mice
Settings: T/C endpoint: mean survival time, higher T/C = longer survival
[1] = dose: 400.0 mg/kg/injection, schedule: Q01DX001 (ip), vehicle: saline
[2] = dose: 400.0 mg/kg/injection, schedule: Q01DX009 (ip), vehicle: saline with Tween-80
[3] = dose: 100.0 mg/kg/injection, schedule: Q04DX003 (ip), vehicle: Klucel (hydroxypropylcellulose) (HPC)
[4] = dose: 200.0 mg/kg/injection, schedule: Q04DX003 (ip), vehicle: Klucel (hydroxypropylcellulose) (HPC)
[5] = dose: 400.0 mg/kg/injection, schedule: Q04DX003 (ip), vehicle: Klucel (hydroxypropylcellulose) (HPC)
[6] = dose: 200.0 mg/kg/injection, schedule: Q01DX009 (ip), vehicle: Klucel (hydroxypropylcellulose) (HPC)
[7] = dose: 400.0 mg/kg/injection, schedule: Q01DX009 (ip), vehicle: Klucel (hydroxypropylcellulose) (HPC)
[8] = dose: 200.0 mg/kg/injection, schedule: Q01DX001 (ip), vehicle: saline with Tween-80
[9] = dose: 400.0 mg/kg/injection, schedule: Q01DX001 (ip), vehicle: saline with Tween-80
[10] = dose: 400.0 mg/kg/injection, schedule: Q04DX002 (ip), vehicle: saline with Tween-80
[11] = dose: 512.0 mg/kg/injection, schedule: Q01DX001 (ip), vehicle: saline
[12] = dose: 200.0 mg/kg/injection, schedule: Q01DX Z (ip), vehicle: saline

Oc1ccccc1C=NC1CCCCC1.Oc1ccccc1C=NC1CCCCC1.[Ni+2]
survivor count (dose: 400.0 mg/kg/injection, schedule: Q04DX003 (ip), vehicle: saline): 3 of 6

C[N+](C)(C)/N=C/C1=C(Cl)CCCC1
survivor count (dose: 25.0 mg/kg/injection, schedule: Q04DX002 (ip), vehicle: Klucel (hydroxypropylcellulose) (HPC)): 3 of 3 | survivor count (dose: 50.0 mg/kg/injection, schedule: Q04DX002 (ip), vehicle: Klucel (hydroxypropylcellulose) (HPC)): 0 of 3 | survivor count (dose: 100.0 mg/kg/injection, schedule: Q04DX002 (ip), vehicle: Klucel (hydroxypropylcellulose) (HPC)): 0 of 3 | survivor count (dose: 150.0 mg/kg/injection, schedule: Q01DX001 (ip), vehicle: carboxymethylcellulose (CMC)): 0 of 6 | survivor count (dose: 300.0 mg/kg/injection, schedule: Q01DX001 (ip), vehicle: carboxymethylcellulose (CMC)): 0 of 6

O=NN1CCCCCC1C(=O)O (stereo not given)
survivor count [1]: 2 of 4

Cc1ccc(C(=O)O)cc1
survivor count [2]: 6 of 6

CC(=O)OC(C)C(C)Br (stereo not given)
survivor count (dose: 200.0 mg/kg/injection, schedule: Q04DX002 (ip), vehicle: Klucel (hydroxypropylcellulose) (HPC)): 3 of 3 | survivor count (dose: 400.0 mg/kg/injection, schedule: Q01DX001 (ip), vehicle: acetone): 2 of 6

O=[N+]([O-])c1nc2ccccc2[nH]1
survivor count (dose: 200.0 mg/kg/injection, schedule: Q01DX001 (ip), vehicle: other): 0 of 4 | survivor count (dose: 400.0 mg/kg/injection, schedule: Q01DX001 (ip), vehicle: other): 0 of 4

ClCCOCOCCCl
survivor count [3]: 6 of 6 | survivor count [4]: 6 of 6 | survivor count [5]: 0 of 6

ClN=C(c1ccccc1)c1ccccc1
survivor count (dose: 100.0 mg/kg/injection, schedule: Q01DX009 (ip), vehicle: Klucel (hydroxypropylcellulose) (HPC)): 3 of 6 | survivor count [6]: 1 of 6 | survivor count [7]: 0 of 6 | survivor count [5]: 2 of 6

CC(=O)Nc1ccc(N=NN(C)C)cc1
survivor count (dose: 50.0 mg/kg/injection, schedule: Q01DX001 (ip), vehicle: saline with Tween-80): 0 of 10 | survivor count (dose: 100.0 mg/kg/injection, schedule: Q01DX001 (ip), vehicle: saline with Tween-80): 0 of 10 | survivor count [8]: 0 of 10 | survivor count [9]: 0 of 10

CC(=O)N(C=C(C#N)C#N)c1ccccc1
survivor count (dose: 400.0 mg/kg/injection, schedule: Q01DX001 (ip), vehicle: Klucel (hydroxypropylcellulose) (HPC)): 0 of 6

CC(=O)Nc1c([N+](=O)[O-])cc2c3c(cccc13)C=C2
survivor count (dose: 100.0 mg/kg/injection, schedule: Q01DX009 (ip), vehicle: saline with Tween-80): 6 of 6

N#CC(C#N)=Cc1ccc([N+](=O)[O-])o1
survivor count (dose: 12.5 mg/kg/injection, schedule: Q01DX009 (ip), vehicle: Klucel (hydroxypropylcellulose) (HPC)): 3 of 6 | survivor count [3]: 0 of 6 | survivor count [4]: 1 of 6 | survivor count [5]: 0 of 6

CCCCSCCSC(=N)N
survivor count (dose: 100.0 mg/kg/injection, schedule: Q04DX002 (ip), vehicle: saline): 0 of 3 | survivor count (dose: 200.0 mg/kg/injection, schedule: Q04DX002 (ip), vehicle: saline): 0 of 3 | survivor count (dose: 400.0 mg/kg/injection, schedule: Q04DX002 (ip), vehicle: saline): 0 of 3

CN(C)C(=O)Nc1ccncc1
survivor count (dose: 100.0 mg/kg/injection, schedule: Q01DX001 (ip), vehicle: saline): 1 of 6 | survivor count (dose: 100.0 mg/kg/injection, schedule: Q01DX009 (ip), vehicle: saline): 0 of 3 and 0 of 6 | survivor count (dose: 100.0 mg/kg/injection, schedule: Q04DX002 (ip), vehicle: saline with Tween-80): 0 of 3, 1 of 6, 1 of 3 | survivor count (dose: 100.0 mg/kg/injection, schedule: Q04DX003 (ip), vehicle: saline): 4 of 6 | survivor count (dose: 200.0 mg/kg/injection, schedule: Q04DX002 (ip), vehicle: saline with Tween-80): 0 of 3 and 0 of 6 | survivor count [10]: 0 of 3 and 0 of 6

O=c1[nH]nnc2nc(Cc3ccc([N+](=O)[O-])cc3)[nH]c12
survivor count [8]: 3 of 6 | survivor count [9]: 2 of 6

CS(=O)(=O)OCCN(CCOS(C)(=O)=O)c1cccc([N+](=O)[O-])c1
survivor count (dose: 228.0 mg/kg/injection, schedule: Q01DX001 (ip), vehicle: saline): 3 of 6 | T/C [11]: 131 % of control | survivor count [11]: 4 of 6 | survivor count (dose: 512.0 mg/kg/injection, schedule: Q01DX015 (ip), vehicle: saline): 5 of 6 | survivor count (dose: 768.0 mg/kg/injection, schedule: Q01DX015 (ip), vehicle: saline): 6 of 6

CCOC(=O)N1CCC(=C(C#N)c2ccccc2)CC1
survivor count [5]: 1 of 6

CCCCN(CCCC)CCCNC(=O)OCC
survivor count [6]: 0 of 6 | survivor count [4]: 0 of 6 | survivor count [7]: 0 of 6 | survivor count [5]: 0 of 6

O=P1(NCCCl)OCCC(OO)N1CCCl (stereo not given)
T/C (dose: 25.0 mg/kg/injection, schedule: Q01DX001 (ip), vehicle: Klucel (hydroxypropylcellulose) (HPC)): 148 % of control | survivor count (dose: 100.0 mg/kg/injection, schedule: Q04DX002 (ip), vehicle: DMSO): 3 of 3 | survivor count (dose: 200.0 mg/kg/injection, schedule: Q04DX002 (ip), vehicle: DMSO): 3 of 3 | survivor count (dose: 400.0 mg/kg/injection, schedule: Q04DX002 (ip), vehicle: DMSO): 3 of 3 | survivor count (dose: 800.0 mg/kg/injection, schedule: Q01DX001 (ip), vehicle: Klucel (hydroxypropylcellulose) (HPC)): 0 of 6

O=c1[nH]c2cc(Cl)c(Cl)cc2o1
survivor count (dose: 150.0 mg/kg/injection, schedule: Q01DX Z (ip), vehicle: carboxymethylcellulose (CMC)): 4 of 6

S=P(N1CCCCCC1)(N1CC1)N1CC1
T/C (dose: 50.0 mg/kg/injection, schedule: Q01DX Z (ip), vehicle: saline): 139 % of control | survivor count (dose: 100.0 mg/kg/injection, schedule: Q01DX Z (ip), vehicle: saline): 5 of 6 | T/C [12]: 131 % of control | survivor count [12]: 5 of 6 | T/C (dose: 200.0 mg/kg/injection, schedule: Q01DX Z (oral), vehicle: saline): 130 % of control | survivor count [1]: 3 of 6 | T/C (dose: 400.0 mg/kg/injection, schedule: Q01DX006 (iv), vehicle: saline): 130 % of control | survivor count (dose: 400.0 mg/kg/injection, schedule: Q01DX Z (ip), vehicle: saline): 0 of 6 and 2 of 6 | survivor count (dose: 400.0 mg/kg/injection, schedule: Q01DX Z (oral), vehicle: saline): 6 of 6 | survivor count (dose: 1000.0 mg/kg/injection, schedule: Q01DX001 (ip), vehicle: saline): 6 of 6 | survivor count (dose: 2000.0 mg/kg/injection, schedule: Q01DX001 (ip), vehicle: saline): 6 of 6

CC(=O)Nc1nc(=O)n(CC(=O)c2cccs2)cc1F
survivor count [2]: 1 of 6 | survivor count (dose: 600.0 mg/kg/injection, schedule: Q01DX009 (ip), vehicle: saline with Tween-80): 0 of 6

Cc1cccc(C(=O)O)c1CC1NCCC2c3ccccc3NC12 (stereo not given)
survivor count (dose: 300.0 mg/kg/injection, schedule: Q01DX001 (ip), vehicle: saline): 0 of 6

CC1CCCCN1Cc1ccccc1COC(=O)c1ccc([N+](=O)[O-])cc1Cl (stereo not given)
survivor count [10]: 1 of 3

O=c1[nH]cnc2n[nH]nc12
T/C (dose: 600.0 mg/kg/injection, schedule: Q01DX009 (ip), vehicle: other): 126 % of control

NCCCCC(N)C(=O)NCCCCCCN(CCCCCCNC(=O)C(N)CCCCN)C(=O)C(N)CCCCN (stereo not given)
survivor count (dose: 200.0 mg/kg/injection, schedule: Q01DX001 (ip), vehicle: saline): 1 of 6 | survivor count [1]: 0 of 6

CNC(=O)Nc1ncnn1Cc1ccccc1
survivor count (dose: 400.0 mg/kg/injection, schedule: Q01DX009 (ip), vehicle: saline): 6 of 6
